According to publication PMC8986538:
Results are given in words; binding and its absence hold for the method and conditions named. Binding seen in cells or lysates may run through a third protein. Some results given as binding are weak or reduced against the parent protein; the word gives no strength.

The chains behind the UniProt entries cited, without tags or fusion partners. Residues count along the entry.
UniProt P05555, residues 17-1153: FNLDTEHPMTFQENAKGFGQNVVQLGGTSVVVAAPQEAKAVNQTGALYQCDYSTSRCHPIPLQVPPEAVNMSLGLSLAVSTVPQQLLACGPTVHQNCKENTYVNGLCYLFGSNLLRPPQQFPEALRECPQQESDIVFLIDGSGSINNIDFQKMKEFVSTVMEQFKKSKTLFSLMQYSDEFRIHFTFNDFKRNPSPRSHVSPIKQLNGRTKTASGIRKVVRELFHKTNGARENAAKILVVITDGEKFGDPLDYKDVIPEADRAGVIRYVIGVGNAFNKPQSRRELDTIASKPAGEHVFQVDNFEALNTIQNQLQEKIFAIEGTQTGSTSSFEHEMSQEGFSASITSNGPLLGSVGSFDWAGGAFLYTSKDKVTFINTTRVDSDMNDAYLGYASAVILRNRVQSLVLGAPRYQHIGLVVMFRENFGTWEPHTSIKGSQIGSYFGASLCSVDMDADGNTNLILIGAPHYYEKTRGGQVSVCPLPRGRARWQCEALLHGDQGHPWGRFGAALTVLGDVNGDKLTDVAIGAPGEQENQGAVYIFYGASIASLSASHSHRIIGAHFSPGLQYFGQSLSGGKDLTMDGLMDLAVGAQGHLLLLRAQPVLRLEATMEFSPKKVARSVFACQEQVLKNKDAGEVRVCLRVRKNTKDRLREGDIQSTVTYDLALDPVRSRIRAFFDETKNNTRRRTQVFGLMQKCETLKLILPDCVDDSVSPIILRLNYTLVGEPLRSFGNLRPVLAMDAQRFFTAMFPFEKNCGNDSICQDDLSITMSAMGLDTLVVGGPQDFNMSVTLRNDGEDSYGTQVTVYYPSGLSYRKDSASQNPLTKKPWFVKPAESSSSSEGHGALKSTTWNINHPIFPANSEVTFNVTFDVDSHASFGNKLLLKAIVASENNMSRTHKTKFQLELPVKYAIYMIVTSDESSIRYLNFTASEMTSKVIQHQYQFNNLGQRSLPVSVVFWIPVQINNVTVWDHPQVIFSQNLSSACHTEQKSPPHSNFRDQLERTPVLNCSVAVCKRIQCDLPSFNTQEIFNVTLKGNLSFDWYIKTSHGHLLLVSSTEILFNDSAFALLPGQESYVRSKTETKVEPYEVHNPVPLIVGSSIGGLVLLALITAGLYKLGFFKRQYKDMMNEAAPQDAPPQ
UniProt P11835, residues 24-771: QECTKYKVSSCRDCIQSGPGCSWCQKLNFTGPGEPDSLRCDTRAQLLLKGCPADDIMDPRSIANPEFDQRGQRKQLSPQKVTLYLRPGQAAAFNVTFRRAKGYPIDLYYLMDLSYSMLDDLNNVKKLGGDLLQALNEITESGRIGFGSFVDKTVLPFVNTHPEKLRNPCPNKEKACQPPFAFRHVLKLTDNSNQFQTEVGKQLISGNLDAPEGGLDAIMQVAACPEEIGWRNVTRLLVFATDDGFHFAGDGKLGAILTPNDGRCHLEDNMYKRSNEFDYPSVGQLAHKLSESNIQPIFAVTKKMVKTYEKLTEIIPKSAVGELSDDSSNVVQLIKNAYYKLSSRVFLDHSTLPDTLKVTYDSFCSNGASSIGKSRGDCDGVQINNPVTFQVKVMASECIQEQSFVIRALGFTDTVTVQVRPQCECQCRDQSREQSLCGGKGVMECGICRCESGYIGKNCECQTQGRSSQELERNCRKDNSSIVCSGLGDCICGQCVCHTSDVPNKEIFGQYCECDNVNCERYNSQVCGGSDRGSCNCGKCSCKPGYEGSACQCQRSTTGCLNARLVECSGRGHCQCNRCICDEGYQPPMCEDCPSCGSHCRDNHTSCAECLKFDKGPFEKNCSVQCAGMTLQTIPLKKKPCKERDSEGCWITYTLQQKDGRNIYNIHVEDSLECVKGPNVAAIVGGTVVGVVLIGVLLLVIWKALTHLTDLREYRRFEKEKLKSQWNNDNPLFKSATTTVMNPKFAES

Molecular target: integrin subunit αM (ITGAM) (mouse (endogenous in neutrophils of C57BL/6J mice)) (UniProt P05555)
Assay: co-IP; immunoprecipitation from lysates of purified wound-derived neutrophils 24 hours p.i., compared with blood neutrophils from non-wounded mice and with mice injected with the HSF inhibitors HSI or KRIBB11; immunoblots with anti-ITGAM and anti-ITGβ2; protocol as in ref. 43

With “integrin subunit beta 2 (ITGB2) (from UniProt P11835 24-771) (receptor)” the binding was “binds”.
